This series in a line: general procedure: Fmoc solid-phase peptide synthesis; Rink amide MBHA; DIC/HOBt; PyBroP/DIEA for repeated Arg coupling. As to conditions: whole synthesis, scale 0.231 mmol.

Drawing on patent publication US20240165282A1 (STARGET PHARMA LTD., priority 2021, published 2024), this text covers crude mass for one substance.

Consider “H-D-Phe^1-Arg^2-Cys^3-Phe^4-D-Trp^5-Lys^6-Thr^7-Phe^8-NTEG^9-NH^2 (cyclo 3-9)”, for which the crude mass worked out at 182 mg.
